The values that follow come from paper PMC11169275, “MAL2 reprograms lipid metabolism in intrahepatic cholangiocarcinoma via EGFR/SREBP-1 pathway based on single-cell RNA sequencing” (Cell Death & Disease, 2024).

The chains behind the UniProt entries cited, without tags or fusion partners.
UniProt Q969L2: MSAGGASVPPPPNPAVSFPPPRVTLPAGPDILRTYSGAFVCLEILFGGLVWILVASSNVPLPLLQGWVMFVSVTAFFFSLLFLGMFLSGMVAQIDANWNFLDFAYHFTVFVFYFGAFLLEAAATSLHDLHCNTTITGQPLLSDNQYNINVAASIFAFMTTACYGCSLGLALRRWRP

No constants are given. Whether binding was seen depends on the method and setting. In cells and extracts the contact can be indirect. Some binding calls cover weakened binding; strength is not graded here.

For this assay, the target named is EGFR, flag-tagged (UniProt P00533). The assay is described as follows: co-IP; HEK293T cells transfected with HA-tagged MAL2 and flag-tagged EGFR, 24 h; IP lysis buffer with protease and phosphatase inhibitors; supernatant incubated overnight at 4 °C with protein G agarose beads and specific antibodies; washed three times with buffers of 300 and 150 mM NaCl; immunoblotting. In general terms: A western blot detects proteins with antibodies after separation by electrophoresis.

“mal, T cell differentiation protein 2 (MAL2), HA-tagged (from UniProt Q969L2 1-176)”: the binding entry was “binds”.
